The source of these data is US6843989 (Seagen, dated 2005).

Protein sequences, listed by entry. Tags and fused reporters are not part of them. Residues count along the entry.
UniProt P25942, residues 21-193: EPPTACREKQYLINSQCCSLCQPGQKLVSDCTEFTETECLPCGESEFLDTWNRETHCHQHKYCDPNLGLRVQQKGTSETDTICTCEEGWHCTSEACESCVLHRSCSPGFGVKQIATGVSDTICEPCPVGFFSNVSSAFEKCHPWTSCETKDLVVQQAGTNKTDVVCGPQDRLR

These are yes or no findings as the source states them, for the method shown. Some results given as binding are weak or reduced against the parent protein; the word gives no strength.

This experiment has as its target CD40-Ig (a soluble fusion protein of CD40 and human immunoglobulin) (UniProt P25942). As to the kind of experiment: S2C6 pre-incubated with 25 µg/ml soluble CD40-Ig.

B1: monoclonal antibody S2C6 (antibody, V domains shown)
VH: EVQLQQSGPDLVKPGASVKISCKASGYSFTGYYIHWVKQSHGKSLEWIGRVIPNNGGTSYNQKFKGKAILTVDKSSSTAYMELRSLTSEDSAVYYCAREGIYWWGHGTTLTVSS
VL: DVVVTQTPLSLPVSLGAQASISCRSSQSLVHSNGNTFLHWYLQKPGQSPKLLIYTVSNRFSGVPDRFSGSGSGTDFTLKISRVEAEDLGVYFCSQTTHVPWTFGGGTKLEIQ
Consider B1, for which the binding result is recorded as “binds”.
